{"source": "PubChem BioAssay AID504467", "about": "(National Center for Advancing Translational Sciences (NCATS), 2011)", "note": "Hit rate of the full screen: of about 330,000 compounds, about 7,700 (2.3%) were called active. The inconclusive results got no clear call from the source; some entries with a clear call stand among them for comparison. Calls come from the whole dose curve; as a rule, active = well fitted inhibition curve with a large enough effect; inconclusive = small, poorly fitted or top-dose-only effect, or effect the other way; inactive = flat fitted curve, though single readings scatter. A potency beside an inconclusive call is a rough fit, not a confirmed value. % is set by controls: 0 for no effect and ±100 for the full control effect; potency is the fitted concentration of half-maximal effect.", "data": [{"test": "qHTS screen for small molecules that inhibit ELG1-dependent DNA repair in human embryonic kidney (HEK293T) cells expressing luciferase-tagged ELG1; note: nearly all actives have a fitted effect of over 55% in size", "settings": "HEK293T ELG1-luciferase reporter, luminescence, 16 h, DNA damage induced by 5-fluorouridine; activity change, negative = inhibition: at 46.1 µM (top of the series)", "method_in_brief": "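DMSO vehicle served as the neutral condition. Each well held 2,000 cells given 5-fluorouridine plus compound; after 16 hr at 37 °C/5% CO2, ONE-Glo was added and luciferase measured 30 min later.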", "values": [{"smiles": "CCc1cccc(NS(=O)(=O)c2csc(C(N)=O)c2)c1", "activity change, negative = inhibition": "inactive: -1.78%"}, {"smiles": "CCOC(=O)N1CCN(CC(O)COCCC23CC4CC(CC(C4)C2)C3)CC1", "note": "(stereo not given)", "activity change, negative = inhibition": "inactive: -14%"}, {"smiles": "CC(Sc1nnc2ccccn12)C(=O)Nc1ccc2c(c1)OCCO2", "note": "(stereo not given)", "Potency": "inconclusive: 14.6 µM [activator, partial curve]"}, {"smiles": "Cn1ncc2c(=O)n(/N=C/c3ccccc3)cnc21", "Potency": "inconclusive: 25.9 µM [activator, single point]"}, {"smiles": "COc1ccccc1CNC(=O)/C=C/c1ccc(S(=O)(=O)N2CCOCC2)cc1", "Potency": "inconclusive: 18.3 µM [inhibitor, single point]"}, {"smiles": "COc1ccc2oc(C(=O)Nc3ccc(S(=O)(=O)N(C)C4CCN(C)CC4)cc3)c(C)c2c1", "activity change, negative = inhibition": "inactive: 11.3%"}, {"smiles": "Cn1nnnc1Sc1ncnc2scc(-c3ccc(Br)cc3)c12", "Potency": "inconclusive: 29.1 µM [inhibitor, single point]"}, {"smiles": "COCC(C)OC(=O)C(C#N)c1nc2ccccc2nc1N1CCN(Cc2ccccc2)CC1", "note": "(stereo not given)", "Potency": "active: 20.6 µM"}, {"smiles": "CC(=O)c1cccc(NC(=O)C(OC(=O)/C=C/c2ccc3c(c2)OCO3)c2ccccc2)c1", "note": "(stereo not given)", "Potency": "inconclusive: 25.9 µM [activator, partial curve, poor fit]"}, {"smiles": "Cn1ncc(Cl)c1C(=O)N1CCN(S(=O)(=O)c2ccc(Cl)s2)CC1", "activity change, negative = inhibition": "inactive: -5.95%"}, {"smiles": "CCOc1cc(/C=C/c2ccc3cccc([N+](=O)[O-])c3n2)cc(Cl)c1O", "Potency": "active: 8.2 µM"}, {"smiles": "CC1CCC(NC(=O)CSc2nncn2C)CC1", "note": "(stereo not given)", "Potency": "inconclusive: 11.6 µM [activator, partial curve]"}, {"smiles": "CCCn1c2ccccc2c2cnn(CC(=O)NC3CCCCC3C)c(=O)c21", "note": "(stereo not given)", "activity change, negative = inhibition": "inactive: 0.0329%"}, {"smiles": "Cc1nc2ccccc2c(=O)n1/N=C/c1ccccc1", "Potency": "inconclusive: 14.6 µM [activator, partial curve]"}, {"smiles": "CC1CCN(C(=O)COC(=O)c2cc3ccccc3cc2O)CC1", "Potency": "inconclusive: 18.4 µM [activator, partial curve]"}, {"smiles": "COCC(C)N=C1NN=C(c2ccc(NC(C)=O)cc2)CS1", "note": "(stereo not given)", "Potency": "inconclusive: 16.4 µM [activator, partial curve]"}, {"smiles": "Cc1[nH]c2ccccc2c1C(=O)CSc1nc2ncc(Cl)cc2[nH]1", "activity change, negative = inhibition": "inactive: -5.78%"}, {"smiles": "O=[N+]([O-])c1ccc(-c2ncc(-c3ccc(Br)cc3)o2)cc1", "Potency": "inconclusive: 13 µM [activator, partial curve]"}, {"smiles": "COC(=O)c1ccccc1NC(=O)Nc1ccc(Br)cn1", "Potency": "inconclusive: 18.3 µM [activator, partial curve]"}, {"smiles": "CCOC(=O)C1=C(C)N(C[C@@H]2CC[C@@H](Cc3ccc4cc(OC)ccc4c3)O2)C(=O)NC1c1ccc(OC)cc1", "note": "(stereo not given in full)", "Potency": "inconclusive: 20.6 µM [inhibitor, single point]"}, {"smiles": "CC(=O)NC(=S)Nc1ccc(NC(=S)NC(=O)c2cccs2)cc1", "activity change, negative = inhibition": "inactive: 8.12%"}, {"smiles": "Cc1ccc(NC(=O)c2ccc(OC(=O)COc3cccc(Cl)c3)cc2)cc1", "Potency": "inconclusive: 9.2 µM [activator, partial curve]"}, {"smiles": "COC(=O)c1ccc(NC(=O)CN2CCCC2)cc1", "Potency": "inconclusive: 25.9 µM [activator, partial curve, poor fit]"}, {"smiles": "Cc1ccc(S(=O)(=O)Nc2c(C)nn(C)c2C)cc1", "Potency": "inconclusive: 25.9 µM [inhibitor, partial curve, poor fit]"}, {"smiles": "CC(C)(C)c1nc2ccccc2c2nnc(SCC(=O)Nc3nccs3)n12", "Potency": "inconclusive: 6.51 µM [inhibitor, single point]"}, {"smiles": "COc1ccccc1NC(=O)/C(C#N)=C/C=C/c1ccco1", "Potency": "inconclusive: 6.51 µM [inhibitor, single point]"}, {"smiles": "CCOC(=O)N1CCN(S(=O)(=O)c2ccc(F)c(C(=O)Nc3ccc(C)c(Cl)c3)c2)CC1", "Potency": "inconclusive: 29.1 µM [inhibitor, single point]"}, {"smiles": "COc1ccc(OC)c(NC(=O)CC2SC(=Nc3ccc(F)cc3)N(CCC3=CCCCC3)C2=O)c1", "note": "(stereo not given)", "Potency": "inconclusive: 16.4 µM [inhibitor, partial curve, poor fit]"}, {"smiles": "O=C(O)CC(Cc1ccc(Br)cc1)C(=O)Nc1ccccc1", "note": "(stereo not given)", "activity change, negative = inhibition": "inactive: -4.52%"}, {"smiles": "COc1ccccc1NC(=O)CCCN1C(=O)C(c2ccccc2)Oc2cccnc21", "note": "(stereo not given)", "activity change, negative = inhibition": "inactive: -2.67%"}, {"smiles": "CC(=O)N/C(N)=N/c1nc(=O)c2ccccc2s1", "Potency": "inconclusive: 4.61 µM [activator, partial curve]"}, {"smiles": "CN(NC(=O)c1ccccc1Cl)c1ncc(C(F)(F)F)cc1Cl", "activity change, negative = inhibition": "inactive: 2.48%"}, {"smiles": "O=C(Cc1ccccc1)N1O[C@H]2C=C[C@@H]1CC2", "Potency": "inconclusive: 23.1 µM [activator, single point]"}, {"smiles": "COc1ccc(OC)c(-c2cc(C(=O)N3CCN(c4ccccc4)CC3)no2)c1", "activity change, negative = inhibition": "inactive: -15.5%"}, {"smiles": "Clc1ccc(OCc2nn3c(-c4ccco4)nnc3s2)cc1", "activity change, negative = inhibition": "inactive: -9.72%"}, {"smiles": "Nn1c(COc2ccccc2)nc2ccccc2c1=O", "Potency": "inconclusive: 11.2 µM [activator, partial curve]"}, {"smiles": "Cc1ncc(CO)c2c1Oc1nc(-c3ccccc3)nc(SCC(=O)N(C)c3ccccc3)c1C2", "Potency": "inconclusive: 2.06 µM [inhibitor, partial curve, poor fit]"}, {"smiles": "COC(=O)c1ccc(NC(=O)COc2cccc(-n3cnnn3)c2)cc1", "activity change, negative = inhibition": "inactive: 6.06%"}, {"smiles": "Cc1cc(Cl)ccc1OCC(=O)Nc1ccncc1", "Potency": "inconclusive: 29.1 µM [activator, single point]"}, {"smiles": "Brc1ccccc1Cn1c(-c2cscn2)nc2ccccc21", "activity change, negative = inhibition": "inactive: -4.45%"}, {"smiles": "CCOC(=O)N1CCN(S(=O)(=O)c2ccc(C(=O)N(CCCN(C)C)c3nc4ccc(OC)cc4s3)cc2)CC1", "activity change, negative = inhibition": "inactive: 11%"}, {"smiles": "CC(O)c1nc2ccccc2n1Cc1nnc(-c2ccc(Cl)cc2)o1", "note": "(stereo not given)", "Potency": "inconclusive: 8.2 µM [activator, partial curve]"}, {"smiles": "CN(C)c1ccc(C(c2nnnn2CCOC(=O)Nc2ccc(Cl)cc2)N2CCOCC2)cc1", "note": "(stereo not given)", "Potency": "inconclusive: 20.6 µM [inhibitor, single point]"}, {"smiles": "COc1ccc(C2CC(=O)c3cnc(N4CCN(Cc5ccccc5)CC4)nc3C2)cc1", "note": "(stereo not given)", "Potency": "inconclusive: 6.51 µM [inhibitor, partial curve, poor fit]"}, {"smiles": "Cc1ccc(-c2nn(-c3ccccc3)cc2C2SCC(=O)N2Cc2ccccc2)o1", "note": "(stereo not given)", "Potency": "inconclusive: 16.4 µM [inhibitor, partial curve, poor fit]"}, {"smiles": "C=CCNC(=O)/C(C#N)=C/c1ccc(SC)cc1", "activity change, negative = inhibition": "inactive: -18.2%"}, {"smiles": "O=c1cc(-c2ccc(O)cc2)oc2ccc(O)cc12", "Potency": "inconclusive: 11.6 µM [activator, partial curve]"}, {"smiles": "C[C@H](NC(=O)c1nc[nH]c1C(=O)N[C@@H](CCCCN)C(=O)OC(C)(C)C)C(=O)OC(C)(C)C", "Potency": "inconclusive: 3.55 µM [activator, single point]"}, {"smiles": "C(=C\\c1ccccc1)/CSc1ccccn1", "Potency": "inconclusive: 16.4 µM [activator, partial curve]"}, {"smiles": "O=C(/C=C/c1ccc(S(=O)(=O)N2CCOCC2)cc1)NCc1ccccc1Cl", "Potency": "inconclusive: 16.4 µM [inhibitor, partial curve]"}, {"smiles": "Cc1ccc(NC(=S)NC(NC(=O)c2ccccc2)C(Cl)(Cl)Cl)c(C)c1", "note": "(stereo not given)", "Potency": "inconclusive: 18.4 µM [inhibitor, partial curve]"}, {"smiles": "O=C(Oc1cccc(-n2cnnn2)c1)c1ccccc1Cl", "activity change, negative = inhibition": "inactive: -3.84%"}, {"smiles": "CCCCCCSc1ccc([C@@H]2[C@@H]3C(=O)N(CC)C(=O)[C@@H]3[C@]3(C(=O)OC)CCCCN23)cc1OC", "Potency": "inconclusive: 22.4 µM [activator, single point]"}, {"smiles": "COc1cc(C(=O)NNC(=O)c2cc(-c3ccccc3)n[nH]2)cc(OC)c1C", "Potency": "inconclusive: 35.5 µM [inhibitor, partial curve, poor fit]"}, {"smiles": "O=C(CSc1ccc(Br)cc1)NCC(c1cccs1)N1CCOCC1", "note": "(stereo not given)", "activity change, negative = inhibition": "inactive: -24%"}, {"smiles": "CCn1c(=O)c2cc(C(=O)NCCC(C)C)sc2c2ccccc21", "Potency": "inconclusive: 4.11 µM [activator, single point]"}, {"smiles": "Cc1[nH]c2ccccc2c1CCN(Cc1cccnc1)C(=S)Nc1ccc(F)cc1", "Potency": "inconclusive: 20.6 µM [inhibitor, single point]"}, {"smiles": "CC1Cc2cc(S(=O)(=O)N3CCC(C(=O)N(C)Cc4ccccc4)CC3)ccc2N1C(=O)C1CC1", "note": "(stereo not given)", "Potency": "active: 20.6 µM"}, {"smiles": "O=C1c2sc3nc4n(c(=O)c3c2CCC1Br)CCCCC4", "note": "(stereo not given)", "Potency": "inconclusive: 18.4 µM [activator, single point]"}, {"smiles": "O=C(c1ccccc1F)N1CCN(S(=O)(=O)c2ccc3c(c2)OCCO3)CC1", "Potency": "inconclusive: 20.6 µM [inhibitor, partial curve]"}, {"smiles": "CCN1C(=S)SC(=O)C1=C1C=C(C)N(Cc2ccco2)C(C)=C1", "Potency": "inconclusive: 2 µM [activator, single point]"}, {"smiles": "Cc1ccccc1OCc1nc(-c2ccc(Br)o2)no1", "Potency": "inconclusive: 23.1 µM [activator, single point]"}, {"smiles": "O=c1[nH]c2cc([N+](=O)[O-])c([N+](=O)[O-])cc2[nH]c1=O", "activity change, negative = inhibition": "inactive: -24%"}, {"smiles": "O=C(NCc1cccnc1)c1cc(S(=O)(=O)N2CCCC2)c(Cl)cc1Cl", "activity change, negative = inhibition": "inactive: 8.96%"}, {"smiles": "CCOCC(=O)Nc1cccc(OC)c1", "Potency": "inconclusive: 18.4 µM [activator, single point]"}, {"smiles": "COc1ccccc1N1CCN(S(=O)(=O)CCNC(=O)CC2CCCCC2)CC1", "Potency": "active: 11.6 µM"}, {"smiles": "Cc1ccc2oc(=O)cc(CN3CCC(C)CC3)c2c1", "Potency": "inconclusive: 18.4 µM [activator, single point]"}, {"smiles": "COc1ccc(NC(=O)C2C(=O)N(CCO)C3(C)CC2c2ccccc2O3)cc1", "note": "(stereo not given)", "Potency": "inconclusive: 18.4 µM [activator, partial curve, poor fit]"}, {"smiles": "Cc1c[nH]c2ccccc12", "activity change, negative = inhibition": "inactive: 6.29%"}, {"smiles": "COc1ccccc1NS(=O)(=O)c1cccc(NC(=O)c2nc3nc(C)cc(C)n3n2)c1", "Potency": "inconclusive: 25.9 µM [inhibitor, partial curve, poor fit]"}]}]}
